Assay results: PMC5996148
The other results are listed elsewhere or left out. For some assays here: The source does not settle which construct or isoform was used.

Assays:
Experiment in all cases: protein microarray (ProtoArray v5.0), streptavidin-Alexa Fluor 647
Conditions in all cases: 3'-biotin; 20 mM Tris (pH 7.5), 5 mM MgCl2, 100 mM KCl, 0.1% Tween-20, A/T-rich and random oligonucleotide blockers; temperature not stated; high values mean tight binding
CFHR3 (human) = system: CFHR3 (human)
CFL2 (human) = system: CFL2 (human)
CGB (human) = system: CGB (human)
CHCHD3 (human) = system: CHCHD3 (human)
CHEK2 (human) = system: CHEK2 (human)
CHMP6 = biological target: T1, CHMP6 (UniProt Q96FZ7)
T1 sequence: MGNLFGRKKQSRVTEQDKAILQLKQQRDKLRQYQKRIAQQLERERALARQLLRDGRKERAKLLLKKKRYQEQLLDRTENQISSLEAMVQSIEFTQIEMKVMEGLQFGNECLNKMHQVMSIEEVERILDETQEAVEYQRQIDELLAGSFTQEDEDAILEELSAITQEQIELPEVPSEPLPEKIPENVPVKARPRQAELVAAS

CHN1 (human) = system: CHN1 (human)
CHRAC1 (human) = system: CHRAC1 (human)
CIAPIN1 (human) = system: CIAPIN1 (human)
CINP = CINP (UniProt Q9BW66)
CISD1 (human) = system: CISD1 (human)
CISH = biological target: T2, CISH (UniProt Q9NSE2)
T2 sequence: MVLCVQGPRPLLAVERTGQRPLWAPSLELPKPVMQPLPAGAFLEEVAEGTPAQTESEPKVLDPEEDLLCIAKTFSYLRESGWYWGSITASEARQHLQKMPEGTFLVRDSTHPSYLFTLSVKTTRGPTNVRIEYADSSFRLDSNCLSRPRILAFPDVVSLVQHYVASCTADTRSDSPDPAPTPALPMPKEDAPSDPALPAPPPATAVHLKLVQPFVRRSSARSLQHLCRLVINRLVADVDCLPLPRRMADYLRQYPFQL

CKB (human) = system: CKB (human)
[1] = system: CKLF-like MARVEL transmembrane domain-containing protein 1 (human)
CKLFSF5 (human) = system: CKLFSF5 (human)
CKM (human) = system: CKM (human)
CLCF1 (human) = system: CLCF1 (human)
CLDN1 (human) = system: CLDN1 (human)
CLDN10 (human) = system: CLDN10 (human)
CLDN12 (human) = system: CLDN12 (human)

Sequence: GGGAGGCTGAGGCAGG [G4-1 biotinylated (PQS2)]
- binding signal (CFHR3 (human)): -0.306 z-score
- binding signal (CFL2 (human)): -0.298 z-score
- binding signal (CGB (human)): -0.321 z-score
- binding signal (CHCHD3 (human)): -0.337 z-score
- binding signal (CHEK2 (human)): -0.327 z-score
- binding signal (CHMP6): 7.01 z-score
- binding signal (CHN1 (human)): -0.362 z-score
- binding signal (CHRAC1 (human)): -0.336 z-score
- binding signal (CIAPIN1 (human)): -0.33 z-score
- binding signal (CINP): -0.32 z-score
- binding signal (CISD1 (human)): -0.322 z-score
- binding signal (CISH): -0.327 z-score
- binding signal (CKB (human)): -0.301 z-score
- binding signal [1]: -0.334 z-score
- binding signal (CKLFSF5 (human)): -0.35 z-score
- binding signal (CKM (human)): -0.355 z-score
- binding signal (CLCF1 (human)): -0.355 z-score
- binding signal (CLDN1 (human)): -0.296 z-score
- binding signal (CLDN10 (human)): -0.304 z-score
- binding signal (CLDN12 (human)): -0.331 z-score
